# From PubChem BioAssay AID248 (DTP/NCI, 2004)
# The list shows only some results of the screen, not a fair sample: it gathers tests that were run many times, whatever their T/C, doses with no T/C, and many T/C values between a quarter and a half above the control. Other doses and runs of a compound stand elsewhere. T/C gives the treated animals as a percentage of the vehicle group. Some entries give survivors of the animals treated and no T/C: the source holds a T/C of zero for them, seemingly a mark for toxic or unscored doses. Some doses without a T/C left all or most animals alive at the check, yet need not have been tolerated: the source hardly ever lists a survival T/C far under the control, and the zero likely stands for such cases as well. Survivors were counted at the toxicity check, usually on the fifth day, unless a day is given; later deaths do not show. Schedules are NCI's codes, read here as Q, the interval in days (D) or hours (H), X, the number of doses. Some doses were run more than once; the results are listed from low to high. Where survival is the endpoint, the PubChem record calls one and a half times the control and up active, and a quarter to a half above the control has no call in these data; cut-offs in other NCI protocols can differ.
# Test system: L1210 leukemia ip in BDF1 mice, survival T/C
# Assay: NCI In Vivo Anticancer Drug Screen. Data for tumor model L1210 Leukemia (intraperitoneal) in B6D2F1 (BDF1) mice
# Conditions: T/C endpoint: mean survival time, higher T/C = longer survival
compound,measurement,setting,value
CC(=O)Oc1cc2c(cc1N=NN(C)C)[C@H]1CC[C@]3(C)[C@@H](O)CC[C@H]3[C@@H]1CC2,survivor count,"dose: 100.0 mg/kg/injection, schedule: Q01DX009 (ip), vehicle: Klucel (hydroxypropylcellulose) (HPC)",3 of 3
same,survivor count,"dose: 200.0 mg/kg/injection, schedule: Q01DX009 (ip), vehicle: Klucel (hydroxypropylcellulose) (HPC)",2 of 3
Cc1cc(CSC2=NCCCN2)c(CSC2=NCCCN2)cc1C,survivor count,"dose: 25.0 mg/kg/injection, schedule: Q04DX002 (ip), vehicle: saline",1 of 3
same,survivor count,"dose: 50.0 mg/kg/injection, schedule: Q01DX001 (ip), vehicle: saline",2 of 6
same,survivor count,"dose: 50.0 mg/kg/injection, schedule: Q04DX002 (ip), vehicle: saline",0 of 3 and 0 of 6
same,survivor count,"dose: 50.0 mg/kg/injection, schedule: Q04DX003 (ip), vehicle: saline",0 of 6
same,survivor count,"dose: 100.0 mg/kg/injection, schedule: Q01DX001 (ip), vehicle: saline",2 of 6
same,survivor count,"dose: 100.0 mg/kg/injection, schedule: Q04DX002 (ip), vehicle: carboxymethylcellulose (CMC)",0 of 3 and 0 of 6
same,survivor count,"dose: 100.0 mg/kg/injection, schedule: Q04DX002 (ip), vehicle: saline",0 of 3 and 1 of 6
same,survivor count,"dose: 100.0 mg/kg/injection, schedule: Q04DX003 (ip), vehicle: saline",0 of 6
same,survivor count,"dose: 200.0 mg/kg/injection, schedule: Q01DX001 (ip), vehicle: saline",0 of 6
same,survivor count,"dose: 200.0 mg/kg/injection, schedule: Q04DX002 (ip), vehicle: carboxymethylcellulose (CMC)",0 of 3 and 0 of 6
same,survivor count,"dose: 200.0 mg/kg/injection, schedule: Q04DX003 (ip), vehicle: saline",0 of 6
same,survivor count,"dose: 400.0 mg/kg/injection, schedule: Q01DX001 (ip), vehicle: saline",0 of 6
same,survivor count,"dose: 400.0 mg/kg/injection, schedule: Q04DX002 (ip), vehicle: carboxymethylcellulose (CMC)",0 of 3 and 0 of 6
same,survivor count,"dose: 400.0 mg/kg/injection, schedule: Q04DX003 (ip), vehicle: saline",0 of 6
CN(C)S(=O)(=O)c1ccc(NC(=O)CI)cc1,survivor count,"dose: 50.0 mg/kg/injection, schedule: Q01DX009 (ip), vehicle: saline with Tween-80",3 of 6
same,survivor count,"dose: 100.0 mg/kg/injection, schedule: Q01DX001 (ip), vehicle: other",0 of 6
same,survivor count,"dose: 200.0 mg/kg/injection, schedule: Q01DX001 (ip), vehicle: other",0 of 6
same,survivor count,"dose: 400.0 mg/kg/injection, schedule: Q01DX001 (ip), vehicle: other",0 of 6
N#Cc1cnc(N)c(C#N)c1,survivor count,"dose: 300.0 mg/kg/injection, schedule: Q01DX009 (ip), vehicle: Klucel (hydroxypropylcellulose) (HPC)",0 of 6
Cc1nc2c(NC(=O)CCl)nn(C)c2nc1C,survivor count,"dose: 200.0 mg/kg/injection, schedule: Q01DX009 (ip), vehicle: saline with Tween-80",3 of 6
C/C=C/CC1(C(C)C)C(=O)NC(=S)NC1=O,survivor count,"dose: 150.0 mg/kg/injection, schedule: Q01DX001 (ip), vehicle: saline",0 of 6
same,survivor count,"dose: 300.0 mg/kg/injection, schedule: Q01DX001 (ip), vehicle: saline",0 of 6
N=C(N)c1nn(C2OC(CO)C(O)C2O)c2ncnc(N)c12 (stereo not drawn),T/C,"dose: 25.0 mg/kg/injection, schedule: Q01DX009 (ip), vehicle: Klucel (hydroxypropylcellulose) (HPC)",140 % of control
same,survivor count,"dose: 50.0 mg/kg/injection, schedule: Q01DX009 (ip), vehicle: Klucel (hydroxypropylcellulose) (HPC)",3 of 6
same,survivor count,"dose: 100.0 mg/kg/injection, schedule: Q01DX005 (ip), vehicle: saline",1 of 6
same,survivor count,"dose: 200.0 mg/kg/injection, schedule: Q01DX005 (ip), vehicle: saline",0 of 6
COC1OC2COC(c3ccccc3)OC2C(O)C1NC(C)=O (stereo not drawn),survivor count,"dose: 400.0 mg/kg/injection, schedule: Q01DX001 (ip), vehicle: Klucel (hydroxypropylcellulose) (HPC)",5 of 5
COc1cc(-c2nc3ccccc3c(=O)o2)cc(OC)c1OC,survivor count,"dose: 400.0 mg/kg/injection, schedule: Q01DX009 (ip), vehicle: saline with Tween-80",6 of 6
NC(CSS(=O)(=O)O)=NCc1ccoc1,survivor count,"dose: 100.0 mg/kg/injection, schedule: Q04DX002 (ip), vehicle: saline with Tween-80",3 of 3
same,survivor count,"dose: 200.0 mg/kg/injection, schedule: Q04DX002 (ip), vehicle: saline with Tween-80",0 of 3
COC(=O)/C(C#N)=C\c1ccccc1,survivor count,"dose: 400.0 mg/kg/injection, schedule: Q04DX003 (ip), vehicle: saline with Tween-80",0 of 6
